The text below walks through data of PubChem BioAssay AID2685 (National Center for Advancing Translational Sciences (NCATS), 2010).

The list shows a part of the results. These are further read-outs of the screen, such as a control signal, another cell line or another target. No call is given for them. Most of these compounds were active or inconclusive in the main read-out, so they are no random draw. The note in brackets gives the kind of curve behind each potency; many fits are weak.

A short description of the experiment: qHTS Assay for Lipid Storage Modulators in Drosophila S3 Cells.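 On cell number change: cells counted by Cell Tracker Red CMTPX staining in the red channel.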 The note with it: BODIPY lipid droplet fluorescence, 18-24 h; for cell number change: measured here: cell count max response, cells fed with added oleic acid. Summed up:
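Drosophila S3 cells got compounds at several concentrations plus oleic acid (400 uM solution). Laser-scanning cytometry with 488 nm excitation read lipid droplets at 500-530 nm and cells at 575-640 nm. Percent activity was relative to 20 uM Triacsin C.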
(In qHTS, concentration-response curves come from the screen itself.)

Where [1] appears, read: measured here: cell number channel AC50, cells fed with added oleic acid.
The mark [2] stands for this setting: measured here: lipid fluorescence (Fed channel) AC50, cells fed with added oleic acid.

By AC50 is commonly meant the midpoint of the concentration-response curve, whichever way the signal moves. In the case of `CC(C)NC(=O)C1CC=CCC1C(=O)O` (stereo not given), the cell number change was -25.2%. Also, under setting [1], the AC50 is 0.103 µM [falling, full curve, poor fit]. On to `CN(C)S(=O)(=O)c1ccc2c(c1)C(CC(=O)O)NC2=O` (stereo not given), for which the cell number change worked out at 1.11%. The AC50 under setting [2] is 6.51 µM [rising, single point]. On to `C=CCCCCc1nc2ccccc2c(=O)n1N`, for which the cell number change turned out to be 32.4%. Moreover, under setting [1], the AC50 was 16.4 µM [rising, partial curve]. Further, under setting [2], the AC50 was 29.1 µM [rising, single point].

With `COc1ccc2oc(-c3ccccc3)c(C(N)=O)c2c1`, the cell number change is -22.2%. Moreover, the half-maximal activity concentration (AC50) under setting [2] was 10.3 µM [rising, partial curve]. As to `COc1cc(C(=O)NCC(=O)NCCN2C(=O)S/C(=C\c3ccccc3Cl)C2=O)cc(OC)c1OC`, the cell number change amounted to 79.1%. The AC50 under setting [1] was 8.2 µM [rising, partial curve]. For `CC(=O)c1ccc(OCCCC(=O)NC2CCC(C)CC2)cc1` (stereo not given), the cell number change is -2.38%. Besides, the AC50 under setting [2] was 3.66 µM [rising, partial curve]. As to `COc1ccc(OCC(=O)NNC(=O)C(=O)Nc2ccc(C)cc2)cc1`, the cell number change is -2.74%. Besides, the half-maximal activity concentration (AC50) under setting [2] was 2.31 µM [rising, full curve].

For the molecule `CCn1c(=O)c(-c2ccccc2)c(O)c2ccccc21`, the cell number change was -9.13%. As for `C[N+](C)=C1SCC(C)(/C=N/O)S1` (stereo not given), the cell number change is -41.1%. The half-maximal activity concentration (AC50) under setting [2] is 0.58 µM [falling, full curve, poor fit].

`CCn1cc(C(=O)O)c(=O)c2cc(F)c(N3CCN(C(=S)NC(=O)c4c(OC)cccc4OC)CC3)cc21`: the cell number change came out at 171%. Also, the concentration at half-maximal activity (AC50) under setting [1] was 29.1 µM [rising, single point]. For the same molecule, under setting [2], the AC50 was 29.1 µM [rising, single point]. As for `O=C(NCc1ccco1)c1ccccc1SCC(=O)N1CCCC1`, the cell number change is 19.7%. For the same molecule, under setting [2], the AC50 is 4.61 µM [rising, full curve, poor fit]. For the molecule `N=c1c2c(-c3ccccc3)c(-c3ccccc3)n(Cc3ccco3)c2ncn1Cc1ccco1`, the cell number change is -29%. The half-maximal activity concentration (AC50) under setting [2] is 32.6 µM [falling, single point]. Consider `COc1ccc(C(=O)NCC(c2cccnc2)N2CCN(c3ccccc3OC)CC2)cc1OC` (stereo not given), for which the half-maximal activity concentration (AC50) reads like this: under setting [1], 0.259 µM [rising, partial curve, poor fit]; under setting [2], 0.411 µM [rising, full curve]. For `O=C(Nc1cccs1)Nc1ccccc1Cl`, the cell number change is -9.17%. Moreover, the concentration at half-maximal activity (AC50) under setting [2] was 0.0326 µM [rising, full curve, poor fit].

Turning to `Cc1nn(-c2ccccc2)c(N2CCCC2)c1/C=N/NC(=S)Nc1ccccc1F`, the cell number change is -51.4%. Further, under setting [1], the AC50 is 29.1 µM [falling, single point]. In addition, under setting [2], the AC50 was 13 µM [rising, partial curve, poor fit]. In the case of `CCCC(=O)Nc1ccc(Cl)c(NC(=S)NC(=O)c2cc3ccccc3o2)c1`, the cell number change is -46.2%. The AC50 under setting [1] is 3.26 µM [falling, full curve, poor fit]. For the same molecule, under setting [2], the AC50 is 5.8 µM [falling, partial curve]. Regarding `CC(=O)Nc1ccc(N2Cc3ccccc3C2)cc1`, the cell number change is -7.37%. As for `COc1cc(OC)cc(C(=O)N[C@H](C(=O)Nc2ccccc2N2CCOCC2)C(C)C)c1`, the cell number change was 96.1%. The concentration at half-maximal activity (AC50) under setting [1] is 3.66 µM [rising, full curve]. The AC50 under setting [2] was 2.31 µM [rising, partial curve]. Regarding `Cc1cc(/C=C\c2ccc3cc(N(C)C)ccc3[n+]2C)c(C)n1-c1ccccc1`, the cell number change is -100%. Moreover, under setting [1], the AC50 was 1.03 µM [falling, full curve]. Moreover, under setting [2], the AC50 was 0.82 µM [falling, full curve]. Take `O=C(COc1ccc(Br)cc1Cl)N1CCN(c2ccccn2)CC1`: the cell number change was determined as 13.8%. Moreover, under setting [1], the concentration at half-maximal activity (AC50) was 3.66 µM [rising, partial curve]. For `COc1ccccc1OCC(O)Cn1nc(C)cc1C` (stereo not given), under setting [2], the AC50 was 6.51 µM [rising, single point]. With `O=C(c1ccccc1)c1nnc(-c2ccncc2)o1`, the cell number change was 29.7%. Further, the AC50 under setting [2] was 5.17 µM [falling, partial curve]. In the case of `CCN1CCN(CCC(=O)Nc2cc(OC)cc(OC)c2)CC1`, the cell number change is 10.1%. Consider `CCOC(=O)c1nnn2c1nc(Nc1cccc(C(F)(F)F)c1)c1ccccc12`, for which the cell number change came out at 4.47%. Further, the half-maximal activity concentration (AC50) under setting [2] is 0.651 µM [rising, full curve]. Turning to `CCN(CC)CCN1C(=O)C(=O)/C(=C(/O)c2ccc(OC(C)C)cc2)C1c1ccncc1` (stereo not given), the cell number change was found to be 2.9%. In addition, the AC50 under setting [2] was 0.651 µM [falling, single point]. For the molecule `CCOC(=O)CNC(=O)CSc1nc2cccnc2n1Cc1ccccc1`, the cell number change is -24.1%. Turning to `O=C(CSc1nc(-c2ccccc2)c(-c2ccccc2)[nH]1)NCC1CCCO1` (stereo not given), the cell number change stood at 27.7%. Take `CC(C)Cc1cc(C(=O)Nc2cc(Br)ccc2O)no1`: the cell number change was -35.8%. For the same molecule, under setting [1], the AC50 was 18.4 µM [falling, single point]. Under setting [2], the half-maximal activity concentration (AC50) is 7.31 µM [falling, partial curve]. Consider `COc1ccc2c(-c3ccccc3)cc(SCC(=O)NC(N)=O)nc2c1`, for which the AC50 under setting [1] is 6.51 µM [rising, partial curve, poor fit]. Regarding `C[C@H](NC(=O)c1ccco1)C(=O)NC1CCCCCC1`, the cell number change was determined as 14.7%. For the same molecule, the half-maximal activity concentration (AC50) under setting [1] was 0.651 µM [falling, single point]. With `Cc1cccc(C(=O)OCCN2CCOCC2)c1`, the cell number change came to 28.4%. Also, the AC50 under setting [2] is 0.731 µM [falling, single point]. As for `O=C(CCn1nnc2ccccc2c1=O)NCC1CCC(C(=O)O)CC1` (stereo not given), the cell number change is 4.42%. With `Cc1ccc(S(=O)(=O)N(C)C)cc1NC(=S)Nc1ccc2[nH]c(=O)[nH]c2c1`, the cell number change was 13.3%. On to `Cc1cc(/C=C(\C#N)c2nnc(N3CCOCC3)n2-c2ccccc2)c(C)n1-c1ccccc1`, for which the cell number change worked out at 67.3%. Besides, under setting [1], the half-maximal activity concentration (AC50) is 5.17 µM [rising, full curve]. For the same molecule, the concentration at half-maximal activity (AC50) under setting [2] was 6.51 µM [falling, partial curve].

Take `COc1ccc(NC(=O)c2nc(-n3nc(C)cc3C)ccc2Cl)cc1Cl`: the cell number change stood at 20%. Under setting [1], the AC50 was 0.517 µM [rising, partial curve, poor fit]. Also, the half-maximal activity concentration (AC50) under setting [2] is 0.461 µM [rising, full curve]. For `COc1cc(/C=N/NC(=O)c2ccccc2O)ccc1OCC(=O)Nc1ccccc1`, the cell number change came out at 53.7%. Further, under setting [1], the concentration at half-maximal activity (AC50) is 29.1 µM [rising, single point]. Under setting [2], the AC50 was 0.326 µM [falling, full curve].

For `O=C1OC(NCc2cccnc2)(c2ccc(Cl)cc2)c2ccccc21` (stereo not given), the cell number change came out at 17.7%. Under setting [2], the AC50 was 29.1 µM [rising, single point]. In the case of `COc1ccc(/C=C/C(=O)OCc2csc(-c3ccccc3)n2)cc1OC`, the cell number change worked out at 5.12%. Under setting [1], the AC50 was 0.731 µM [falling, single point]. Turning to `CC(=O)N1CCc2cc(Br)cc(S(=O)(=O)NCCCN(C)Cc3ccccc3)c21`, the cell number change was -7.69%. For the molecule `CS(=O)(=O)c1ccc(-c2nnc(NC(=O)C3=COCCO3)o2)cc1`, the cell number change was -13.6%. Moreover, the AC50 under setting [2] was 6.51 µM [falling, single point]. As for `CCOc1ccc2c(c1)sc(N)[n+]2Cc1cc(C)cc2cccnc12`, the cell number change is -24.4%. Moreover, the AC50 under setting [2] was 16.4 µM [falling, single point]. Take `COc1ccc(C(C(=O)NC(C)(C)C)N(CCc2ccccc2)C(=O)CCC(=O)Nc2cc(C)on2)cc1` (stereo not given): the cell number change is -11.9%. The AC50 under setting [1] is 0.326 µM [falling, full curve, poor fit]. Take `COc1cc2[nH]c(=S)n(C3CC3)c(=O)c2cc1OC`: the cell number change was 9.65%. Moreover, the half-maximal activity concentration (AC50) under setting [2] was 2.59 µM [rising, single point]. Take `Cc1cc(C(=O)NNC(=S)NC(=O)/C=C/c2ccccc2Cl)n[nH]1`: the cell number change is -37.9%. The AC50 under setting [1] is 23.1 µM [falling, single point]. Under setting [2], the AC50 was 20.6 µM [falling, partial curve]. As for `COCc1nnc(NS(=O)(=O)c2ccc([N+](=O)[O-])cc2)s1`, the concentration at half-maximal activity (AC50) under setting [2] is 3.26 µM [falling, full curve]. `O=C(NCc1nc(-c2ccc(C(F)(F)F)cc2)no1)Nc1cc(Cl)cc(Cl)c1`: the cell number change is -54.8%. Moreover, the concentration at half-maximal activity (AC50) under setting [1] is 29.1 µM [falling, single point]. Further, under setting [2], the half-maximal activity concentration (AC50) was 29.1 µM [falling, single point]. With `C=CCn1c(=N)n(CC(=O)c2ccc(OC)cc2)c2ccccc21`, the AC50 under setting [2] is 8.2 µM [rising, partial curve]. As for `O=c1nc(N/N=C/c2ccco2)cn[nH]1`, the AC50 under setting [1] is 0.103 µM [rising, single point]. As to `COC(=O)c1ccc(NC(=O)CN2CCC(NC(=O)c3ccco3)CC2)cc1`, the cell number change turned out to be 21.5%. The half-maximal activity concentration (AC50) under setting [1] is 6.51 µM [rising, single point]. `Cc1ccc(S(=O)(=O)N(C)c2cc(S(N)(=O)=O)c(C)cc2C)cc1`: the cell number change worked out at 29.4%. Consider `O=C(N/N=C/c1c(Cl)[nH]c2ccccc12)c1ccc2c(c1)OCCO2`, for which the cell number change is -26.3%. Moreover, the concentration at half-maximal activity (AC50) under setting [2] was 5.8 µM [falling, partial curve, poor fit].

`COc1cc(OC)cc(C(=O)N[C@H](C(=O)Nc2nnc(C3CC3)s2)C(C)C)c1`: the concentration at half-maximal activity (AC50) under setting [1] is 0.146 µM [falling, full curve, poor fit].

In the case of `C=CCN(c1ccccc1)S(=O)(=O)c1cccc(C(=O)Nc2ncccc2O)c1`, under setting [1], the concentration at half-maximal activity (AC50) was 0.411 µM [rising, partial curve].

As for `CC(=O)c1c(O)c2ccccc2n(Cc2ccccc2)c1=O`, the cell number change came to 19.4%. `CCOC(=O)C(C(=O)OCC)N(C#N)c1nc(OC)nc(N(C)C)n1`: the cell number change stood at 46.5%. The half-maximal activity concentration (AC50) under setting [1] is 11.6 µM [rising, partial curve, poor fit]. For `C=CCNc1nc(C(=O)OCC(=O)Nc2ccccc2C(F)(F)F)cs1`, the cell number change is 4.01%. Also, the AC50 under setting [2] was 0.731 µM [falling, single point]. For `Cn1c2ccccc2c2cc(/C=N/NC(=O)c3cc(O)ccc3O)ccc21`, the cell number change is -15.9%. Consider `COc1ccc(-c2noc(CNC(=O)c3ccoc3C)n2)cc1`, for which the cell number change amounted to 13.8%.

Take `CNCc1ccccc1OCc1ccc(F)cc1`: the cell number change is -0.615%. For the same molecule, the concentration at half-maximal activity (AC50) under setting [1] is 3.66 µM [falling, single point]. Further, under setting [2], the half-maximal activity concentration (AC50) is 2.59 µM [falling, single point]. Regarding `Cn1c(SCC(=O)N2CCCCCC2)nnc1-c1ccco1`, the cell number change is -3.95%. For the molecule `CCOc1ccc(C(C(=O)NC2CCCC2)N(C(=O)CNC(=O)c2ccco2)c2cccnc2)cc1` (stereo not given), the cell number change was 6.58%. Further, under setting [2], the AC50 is 25.1 µM [falling, single point].
